{"source": "PubChem BioAssay AID1259254 (NCATS, 2017)", "assay": "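Finding genes that stop cells copying their DNA twice in one cycle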 (primary screen)", "system": "human HCT116 colorectal cancer cells", "reagent": "single siRNA against human genes", "time to read-out": "3 days", "read-out": "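Imaged Hoechst DNA stain sorts each cell into a cycle phase by DNA amount; per plate, G2 fraction set to 0% for non-targeting and 100% for GMNN siRNA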", "scale": "G2 robust z-score and G2 cells, % of GMNN control: higher = more G2 cells, more excess DNA replication", "hit rule": "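Active siRNAs have a G2 robust z of 5 or more median absolute deviations over the median, which in these data means about 38% or higher of GMNN control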", "note": "In all, the deposit lists about 59,000 reagents; below is a random part of them. About 1,550 of all reagents (2.6%) count as active. 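G2 share is only a proxy for re-replication; each gene was hit by three separate siRNAs, and active genes were retested.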 Unmarked entries are inactive. The numbers tell different reagents against one gene apart. Not all columns of the deposit are shown. The record does not give: the amount of reagent."}
{"gene": "SETD5 (SET domain containing 5)", "reagent no.": 1, "G2 robust z-score": 0.312, "G2 cells, % of GMNN control": 5.17}
{"gene": "SETD5 (SET domain containing 5)", "reagent no.": 2, "G2 robust z-score": -0.339, "G2 cells, % of GMNN control": 0.58}
{"gene": "SETD5 (SET domain containing 5)", "reagent no.": 3, "G2 robust z-score": 1.27, "G2 cells, % of GMNN control": 11.9}
{"gene": "WDR31 (WD repeat domain 31)", "reagent no.": 1, "G2 robust z-score": 1.53, "G2 cells, % of GMNN control": 13.7}
{"gene": "WDR31 (WD repeat domain 31)", "reagent no.": 2, "G2 robust z-score": 2.49, "G2 cells, % of GMNN control": 20.5}
{"gene": "WDR31 (WD repeat domain 31)", "reagent no.": 3, "G2 robust z-score": -1.16, "G2 cells, % of GMNN control": -5.16}
{"gene": "LOC651337", "reagent no.": 1, "G2 robust z-score": 0.523, "G2 cells, % of GMNN control": 6.65}
{"gene": "LOC651337", "reagent no.": 2, "G2 robust z-score": 0.0795, "G2 cells, % of GMNN control": 3.53}
{"gene": "LOC651337", "reagent no.": 3, "G2 robust z-score": 0.624, "G2 cells, % of GMNN control": 7.36}
{"gene": "RIMOC1 (RAB7A interacting MON1-CCZ1 complex subunit 1)", "reagent no.": 1, "G2 robust z-score": -0.267, "G2 cells, % of GMNN control": 1.09}
{"gene": "RIMOC1 (RAB7A interacting MON1-CCZ1 complex subunit 1)", "reagent no.": 2, "G2 robust z-score": -0.597, "G2 cells, % of GMNN control": -1.23}
{"gene": "RIMOC1 (RAB7A interacting MON1-CCZ1 complex subunit 1)", "reagent no.": 3, "G2 robust z-score": 0.238, "G2 cells, % of GMNN control": 4.64}
{"gene": "PPP1R35 (protein phosphatase 1 regulatory subunit 35)", "reagent no.": 1, "G2 robust z-score": 0.261, "G2 cells, % of GMNN control": 4.81}
{"gene": "PPP1R35 (protein phosphatase 1 regulatory subunit 35)", "reagent no.": 2, "G2 robust z-score": 0.31, "G2 cells, % of GMNN control": 5.15}
{"gene": "PPP1R35 (protein phosphatase 1 regulatory subunit 35)", "reagent no.": 3, "G2 robust z-score": 2.35, "G2 cells, % of GMNN control": 19.5}
{"gene": "DGAT2 (diacylglycerol O-acyltransferase 2)", "reagent no.": 1, "G2 robust z-score": "11.6 (active)", "G2 cells, % of GMNN control": 84.7}
{"gene": "DGAT2 (diacylglycerol O-acyltransferase 2)", "reagent no.": 2, "G2 robust z-score": -1.43, "G2 cells, % of GMNN control": -7.1}
{"gene": "DGAT2 (diacylglycerol O-acyltransferase 2)", "reagent no.": 3, "G2 robust z-score": 0.0871, "G2 cells, % of GMNN control": 3.58}

Quoted from the listing (4 entries):
{"gene": "LOC651337", "reagent no.": 3, "G2 robust z-score": 0.624, "G2 cells, % of GMNN control": 7.36}
{"gene": "RIMOC1 (RAB7A interacting MON1-CCZ1 complex subunit 1)", "reagent no.": 1, "G2 robust z-score": -0.267, "G2 cells, % of GMNN control": 1.09}
{"gene": "RIMOC1 (RAB7A interacting MON1-CCZ1 complex subunit 1)", "reagent no.": 2, "G2 robust z-score": -0.597, "G2 cells, % of GMNN control": -1.23}
{"gene": "RIMOC1 (RAB7A interacting MON1-CCZ1 complex subunit 1)", "reagent no.": 3, "G2 robust z-score": 0.238, "G2 cells, % of GMNN control": 4.64}

Continued:
{"gene": "FASTK (Fas activated serine/threonine kinase)", "reagent no.": 1, "G2 robust z-score": 3.26, "G2 cells, % of GMNN control": 25.9}
{"gene": "FASTK (Fas activated serine/threonine kinase)", "reagent no.": 2, "G2 robust z-score": 0.254, "G2 cells, % of GMNN control": 4.76}
{"gene": "FASTK (Fas activated serine/threonine kinase)", "reagent no.": 3, "G2 robust z-score": 0.108, "G2 cells, % of GMNN control": 3.73}
{"gene": "SAXO5 (stabilizer of axonemal microtubules 5)", "reagent no.": 1, "G2 robust z-score": -0.0339, "G2 cells, % of GMNN control": 2.73}
{"gene": "SAXO5 (stabilizer of axonemal microtubules 5)", "reagent no.": 2, "G2 robust z-score": 2.56, "G2 cells, % of GMNN control": 21}
{"gene": "SAXO5 (stabilizer of axonemal microtubules 5)", "reagent no.": 3, "G2 robust z-score": -0.908, "G2 cells, % of GMNN control": -3.42}
{"gene": "UBA1 (ubiquitin like modifier activating enzyme 1)", "reagent no.": 1, "G2 robust z-score": 4.45, "G2 cells, % of GMNN control": 34.3}
{"gene": "UBA1 (ubiquitin like modifier activating enzyme 1)", "reagent no.": 2, "G2 robust z-score": 0.144, "G2 cells, % of GMNN control": 3.98}
{"gene": "UBA1 (ubiquitin like modifier activating enzyme 1)", "reagent no.": 3, "G2 robust z-score": 1.12, "G2 cells, % of GMNN control": 10.9}
{"gene": "GRB7 (growth factor receptor bound protein 7)", "reagent no.": 1, "G2 robust z-score": -1.09, "G2 cells, % of GMNN control": -4.68}
{"gene": "GRB7 (growth factor receptor bound protein 7)", "reagent no.": 2, "G2 robust z-score": -1.17, "G2 cells, % of GMNN control": -5.23}
{"gene": "GRB7 (growth factor receptor bound protein 7)", "reagent no.": 3, "G2 robust z-score": -1.19, "G2 cells, % of GMNN control": -5.4}
